In PubChem BioAssay AID504937 (National Center for Advancing Translational Sciences (NCATS), 2011):
Out of some 340,000 compounds screened, about 20 (0.006%) were called active. Listed are the inconclusive results; actives and inactives stand elsewhere. Calls follow the shape of the dose curve; as a rule, active = well fitted inhibition curve with a large enough effect; inconclusive = small, poorly fitted or top-dose-only effect; inactive = no such curve, though single readings can be large or run the other way.

Amino acid sequences for entries named in this document (tags omitted). Residues count along the entry.
UniProt P17405, 47-631 limits assumed: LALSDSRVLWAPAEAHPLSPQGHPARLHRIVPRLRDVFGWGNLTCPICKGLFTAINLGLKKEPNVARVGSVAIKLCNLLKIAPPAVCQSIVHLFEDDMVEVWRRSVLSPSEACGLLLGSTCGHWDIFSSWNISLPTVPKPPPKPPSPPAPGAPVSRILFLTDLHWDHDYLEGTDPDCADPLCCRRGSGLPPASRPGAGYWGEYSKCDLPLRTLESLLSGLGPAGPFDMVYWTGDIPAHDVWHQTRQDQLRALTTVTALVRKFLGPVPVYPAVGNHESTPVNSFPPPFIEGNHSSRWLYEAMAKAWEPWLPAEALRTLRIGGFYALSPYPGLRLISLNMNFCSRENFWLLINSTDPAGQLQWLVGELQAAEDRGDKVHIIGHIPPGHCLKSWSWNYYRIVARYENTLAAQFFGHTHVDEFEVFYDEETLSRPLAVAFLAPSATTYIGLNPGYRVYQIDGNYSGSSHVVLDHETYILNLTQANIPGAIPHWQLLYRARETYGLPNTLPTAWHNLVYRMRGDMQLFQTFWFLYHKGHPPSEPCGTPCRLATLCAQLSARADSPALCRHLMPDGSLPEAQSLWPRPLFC

What follows are compounds tested against Sphingomyelin phosphodiesterase (Homo sapiens) (UniProt P17405) (assay: Inhibitors of Secretory Acid Sphingomyelinase (S-ASM): qHTS). Settings: placental ASM, HMU-PC fluorogenic substrate (series up to 57.5 µM), 60 min.
Potency is read from the fitted curve at half-maximal effect.

| Structure (SMILES) | Potency |
| --- | --- |
| CCCCCCCCCCCCCCCC1C[N+](C)(C)CCOP(C)(=O)O1 (stereo unspecified) | inconclusive: 56.2 µM |
